Values from PubChem BioAssay AID1053208 (Peter MacCallum Cancer Centre, 2014)
Assay: 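Find knock-downs that sensitise mouse osteosarcoma cells to doxorubicin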 (primary screen). Cells: mouse osteosarcoma cells, early-passage culture from an engineered mouse model of fibroblastic bone tumour. Reagent: siRNA pool against mouse genes, 40 nM. Timing: about 120 h (48 h before drug, then 72 h with drug). Conditions: doxorubicin 100 nM for 72 h, roughly 30-40% inhibitory dose. Detection: 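Luminescent ATP signal taken as viability with or without 100 nM doxorubicin for 72 h; mean of two wells set against non-targeting siRNA and turned into robust z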. Reading the numbers: viability z-score with doxorubicin: higher = more viable cells under doxorubicin; viability z-score without drug: higher = more viable cells with knock-down alone; z-score of drug to no-drug ratio: higher = less drug sensitisation by knock-down. Call rule: 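Called active if knock-down leaves viability unchanged without drug (z within -2 to 2) but lowers it with doxorubicin (z at or under -2)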.
Here is one part, drawn at random, of about 17,000 reagents. 788 of all reagents (4.7%) were called active. 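Calls rest on z-score classes alone; an extra cut-off of viability at most 70% of control was not applied to them.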 Further read-outs or replicates are left out here. No sequences are given here.

| gene | combined z-score class | viability z-score with doxorubicin | viability z-score without drug | z-score of drug to no-drug ratio | call |
| --- | --- | --- | --- | --- | --- |
| Tnrc6b | no change with or without drug | -0.67 | 0.84 | -1.12 | inactive |
| Plod1 | no change with or without drug | 0.45 | 0.51 | 0.22 | inactive |
| Mx1 | no change with or without drug | 0.45 | -0.34 | 0.79 | inactive |
| Nmd3 | no change with or without drug | -1.35 | -0.17 | -1.24 | inactive |
| Actl6b | no change with or without drug | -0.67 | -1.69 | 0.67 | inactive |
| Phtf2 | no change with or without drug | -0.45 | -1.52 | 0.79 | inactive |
| Klk1b9 | low cell count without drug only | -1.91 | -3.04 | 0.22 | inactive |
| Rag2 | no change with or without drug | 0.45 | -0.17 | 0.67 | inactive |
| Tcaf3 | no change with or without drug | -1.57 | 0.84 | -2.02 | inactive |
| Zbtb7a | no change with or without drug | -0.22 | 0.51 | -0.45 | inactive |
| Vsx2 | no change with or without drug | 0 | 1.52 | -0.9 | inactive |
| Or4c1 | no change with or without drug | 0.34 | 1.85 | -0.67 | inactive |
| Ggn | high cell count without drug only | 0.9 | 2.19 | -0.45 | inactive |
| Pde3a | no change with or without drug | 1.24 | -1.01 | 2.25 | inactive |
| Mdp1 | no change with or without drug | -1.57 | -0.17 | -1.46 | inactive |
| Irs3 | no change with or without drug | -1.46 | -0.84 | -0.9 | inactive |
| Sir2l1 | no change with or without drug | -0.34 | -0.17 | -0.11 | inactive |
| Dlc1 | no change with or without drug | -1.8 | 1.18 | -2.47 | inactive |
| Map3k3 | no change with or without drug | 0.9 | 0.84 | 0.45 | inactive |
| Brca1 | low cell count with and without drug | -2.14 | -2.19 | -0.79 | inactive |

Not a retest: 3 of the entries above.
| gene | combined z-score class | viability z-score with doxorubicin | viability z-score without drug | z-score of drug to no-drug ratio | call |
| --- | --- | --- | --- | --- | --- |
| Nmd3 | no change with or without drug | -1.35 | -0.17 | -1.24 | inactive |
| Actl6b | no change with or without drug | -0.67 | -1.69 | 0.67 | inactive |
| Phtf2 | no change with or without drug | -0.45 | -1.52 | 0.79 | inactive |
